Measured values reported in the supplement of paper PMC10849652.
The other results are listed elsewhere or left out. Residues, ends and D or L forms follow the SMILES beside them. *: point of attachment. Cbz = O=C(OCc1ccccc1)*

Sequences of proteins named here, by UniProt entry; tags and fusion partners are left off. A change or cut given only in a name is not applied to a line headed by its entry.
UniProt Q86UL3: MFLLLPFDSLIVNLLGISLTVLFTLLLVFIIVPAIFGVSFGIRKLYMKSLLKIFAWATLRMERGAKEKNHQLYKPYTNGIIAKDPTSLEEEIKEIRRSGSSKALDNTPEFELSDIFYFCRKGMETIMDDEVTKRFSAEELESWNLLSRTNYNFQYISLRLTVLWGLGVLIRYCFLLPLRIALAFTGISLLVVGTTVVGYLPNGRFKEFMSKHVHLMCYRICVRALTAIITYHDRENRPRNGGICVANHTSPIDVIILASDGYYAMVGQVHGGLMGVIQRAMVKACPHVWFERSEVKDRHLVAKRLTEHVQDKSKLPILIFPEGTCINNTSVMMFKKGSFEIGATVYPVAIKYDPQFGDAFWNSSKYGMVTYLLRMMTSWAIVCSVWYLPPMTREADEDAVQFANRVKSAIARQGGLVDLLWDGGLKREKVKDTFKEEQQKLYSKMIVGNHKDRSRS
UniProt Q4V328: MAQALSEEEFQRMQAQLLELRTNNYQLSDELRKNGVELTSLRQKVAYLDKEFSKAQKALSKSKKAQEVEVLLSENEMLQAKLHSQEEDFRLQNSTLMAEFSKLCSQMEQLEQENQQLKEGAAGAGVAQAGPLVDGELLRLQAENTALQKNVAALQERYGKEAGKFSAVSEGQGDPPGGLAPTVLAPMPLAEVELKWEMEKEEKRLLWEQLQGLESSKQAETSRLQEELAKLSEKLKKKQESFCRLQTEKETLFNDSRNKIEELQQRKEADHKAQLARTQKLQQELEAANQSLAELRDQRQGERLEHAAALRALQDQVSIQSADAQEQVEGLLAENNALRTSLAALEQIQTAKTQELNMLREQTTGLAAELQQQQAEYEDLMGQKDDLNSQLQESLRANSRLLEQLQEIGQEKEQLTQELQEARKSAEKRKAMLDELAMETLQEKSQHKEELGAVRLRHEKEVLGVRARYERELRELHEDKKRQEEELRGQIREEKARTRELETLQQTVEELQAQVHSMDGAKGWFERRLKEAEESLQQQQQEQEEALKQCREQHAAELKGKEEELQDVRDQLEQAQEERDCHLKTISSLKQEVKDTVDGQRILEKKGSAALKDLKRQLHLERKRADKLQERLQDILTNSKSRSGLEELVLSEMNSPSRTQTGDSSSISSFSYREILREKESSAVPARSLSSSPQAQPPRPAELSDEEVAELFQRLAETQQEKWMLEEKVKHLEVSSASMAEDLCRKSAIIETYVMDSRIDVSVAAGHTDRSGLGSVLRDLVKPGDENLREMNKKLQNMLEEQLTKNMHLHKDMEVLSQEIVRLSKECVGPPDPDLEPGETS
UniProt Q14344, whole entry, looked up: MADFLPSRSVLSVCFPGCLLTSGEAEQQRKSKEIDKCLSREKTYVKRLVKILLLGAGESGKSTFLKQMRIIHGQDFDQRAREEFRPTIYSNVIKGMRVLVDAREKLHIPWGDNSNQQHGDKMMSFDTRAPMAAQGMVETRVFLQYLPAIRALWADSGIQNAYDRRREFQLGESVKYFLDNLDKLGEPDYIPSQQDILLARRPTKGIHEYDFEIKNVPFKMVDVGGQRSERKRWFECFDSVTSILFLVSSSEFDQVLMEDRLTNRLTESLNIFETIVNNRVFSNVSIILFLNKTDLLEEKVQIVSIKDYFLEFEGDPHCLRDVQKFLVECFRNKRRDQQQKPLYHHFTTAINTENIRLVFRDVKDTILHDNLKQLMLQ
UniProt P16278: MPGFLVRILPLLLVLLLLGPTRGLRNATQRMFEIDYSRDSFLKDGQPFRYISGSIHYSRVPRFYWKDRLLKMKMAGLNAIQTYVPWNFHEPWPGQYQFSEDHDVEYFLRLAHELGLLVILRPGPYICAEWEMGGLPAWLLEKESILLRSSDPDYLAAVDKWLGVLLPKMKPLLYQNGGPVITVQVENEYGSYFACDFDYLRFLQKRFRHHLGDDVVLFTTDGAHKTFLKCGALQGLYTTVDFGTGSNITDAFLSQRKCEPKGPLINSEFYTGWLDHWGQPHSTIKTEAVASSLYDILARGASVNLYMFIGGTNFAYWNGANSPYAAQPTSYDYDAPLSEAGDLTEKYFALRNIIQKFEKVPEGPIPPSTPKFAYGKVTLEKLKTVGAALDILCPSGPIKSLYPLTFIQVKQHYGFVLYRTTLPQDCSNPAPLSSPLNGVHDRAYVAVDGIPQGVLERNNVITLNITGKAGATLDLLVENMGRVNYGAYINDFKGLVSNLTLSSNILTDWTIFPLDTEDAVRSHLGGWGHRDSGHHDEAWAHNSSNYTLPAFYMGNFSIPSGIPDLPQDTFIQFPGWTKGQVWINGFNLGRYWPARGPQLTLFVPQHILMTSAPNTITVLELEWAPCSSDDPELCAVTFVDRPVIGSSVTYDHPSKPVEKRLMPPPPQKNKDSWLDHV
UniProt Q8N335: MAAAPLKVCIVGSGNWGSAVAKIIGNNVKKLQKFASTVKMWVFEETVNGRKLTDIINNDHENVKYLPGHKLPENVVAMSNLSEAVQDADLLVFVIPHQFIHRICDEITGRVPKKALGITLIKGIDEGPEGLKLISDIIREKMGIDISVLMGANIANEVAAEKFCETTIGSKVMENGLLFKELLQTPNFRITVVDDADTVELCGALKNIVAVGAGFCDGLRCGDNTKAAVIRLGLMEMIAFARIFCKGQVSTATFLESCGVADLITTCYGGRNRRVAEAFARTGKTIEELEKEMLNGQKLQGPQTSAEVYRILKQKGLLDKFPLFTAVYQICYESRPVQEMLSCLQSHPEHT
UniProt Q9NS18: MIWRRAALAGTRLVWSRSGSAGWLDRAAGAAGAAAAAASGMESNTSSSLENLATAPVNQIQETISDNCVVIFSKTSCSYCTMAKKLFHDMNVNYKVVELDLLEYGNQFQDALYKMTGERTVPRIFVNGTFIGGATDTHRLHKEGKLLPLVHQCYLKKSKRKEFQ
UniProt O43292: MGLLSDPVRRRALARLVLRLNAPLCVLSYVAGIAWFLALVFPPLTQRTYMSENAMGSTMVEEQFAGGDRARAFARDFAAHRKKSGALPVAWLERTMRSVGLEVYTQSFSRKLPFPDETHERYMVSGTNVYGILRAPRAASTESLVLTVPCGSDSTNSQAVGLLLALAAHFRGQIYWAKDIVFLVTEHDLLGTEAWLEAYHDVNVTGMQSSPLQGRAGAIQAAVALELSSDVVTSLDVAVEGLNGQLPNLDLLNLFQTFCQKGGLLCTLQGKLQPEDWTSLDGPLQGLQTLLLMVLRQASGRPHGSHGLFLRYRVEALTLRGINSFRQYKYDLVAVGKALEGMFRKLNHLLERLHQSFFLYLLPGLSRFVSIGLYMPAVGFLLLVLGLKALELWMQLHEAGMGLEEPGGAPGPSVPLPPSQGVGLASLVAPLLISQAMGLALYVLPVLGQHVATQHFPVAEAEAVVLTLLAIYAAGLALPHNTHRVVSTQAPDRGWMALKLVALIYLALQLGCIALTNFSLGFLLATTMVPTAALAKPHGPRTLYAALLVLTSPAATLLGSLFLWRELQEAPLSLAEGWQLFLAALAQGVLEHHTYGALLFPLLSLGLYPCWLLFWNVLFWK
UniProt Q7Z2K8: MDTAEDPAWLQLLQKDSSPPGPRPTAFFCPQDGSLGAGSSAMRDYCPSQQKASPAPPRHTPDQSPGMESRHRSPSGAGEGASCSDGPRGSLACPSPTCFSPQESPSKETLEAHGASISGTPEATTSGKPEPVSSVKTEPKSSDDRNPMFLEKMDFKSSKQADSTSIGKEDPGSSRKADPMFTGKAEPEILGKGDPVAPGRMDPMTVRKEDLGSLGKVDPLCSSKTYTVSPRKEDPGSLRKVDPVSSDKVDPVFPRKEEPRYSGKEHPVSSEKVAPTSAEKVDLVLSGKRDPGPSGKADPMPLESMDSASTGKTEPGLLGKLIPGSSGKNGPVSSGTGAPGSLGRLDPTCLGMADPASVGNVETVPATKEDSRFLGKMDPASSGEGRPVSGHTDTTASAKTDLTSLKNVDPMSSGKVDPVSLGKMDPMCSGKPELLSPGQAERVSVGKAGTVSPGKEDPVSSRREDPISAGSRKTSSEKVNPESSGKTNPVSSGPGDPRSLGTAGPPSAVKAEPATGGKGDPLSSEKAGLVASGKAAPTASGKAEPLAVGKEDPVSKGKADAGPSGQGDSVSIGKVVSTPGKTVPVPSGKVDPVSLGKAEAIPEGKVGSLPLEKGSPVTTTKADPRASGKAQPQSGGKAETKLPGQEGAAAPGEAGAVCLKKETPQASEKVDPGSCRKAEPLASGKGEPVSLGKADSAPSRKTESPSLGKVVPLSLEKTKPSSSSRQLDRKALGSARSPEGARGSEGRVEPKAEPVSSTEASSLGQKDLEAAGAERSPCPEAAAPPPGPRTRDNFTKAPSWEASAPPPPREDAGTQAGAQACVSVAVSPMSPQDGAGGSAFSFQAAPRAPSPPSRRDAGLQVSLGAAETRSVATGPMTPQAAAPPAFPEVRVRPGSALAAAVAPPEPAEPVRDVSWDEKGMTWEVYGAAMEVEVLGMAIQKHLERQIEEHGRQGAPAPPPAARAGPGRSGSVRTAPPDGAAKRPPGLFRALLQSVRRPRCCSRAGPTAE
UniProt O75791: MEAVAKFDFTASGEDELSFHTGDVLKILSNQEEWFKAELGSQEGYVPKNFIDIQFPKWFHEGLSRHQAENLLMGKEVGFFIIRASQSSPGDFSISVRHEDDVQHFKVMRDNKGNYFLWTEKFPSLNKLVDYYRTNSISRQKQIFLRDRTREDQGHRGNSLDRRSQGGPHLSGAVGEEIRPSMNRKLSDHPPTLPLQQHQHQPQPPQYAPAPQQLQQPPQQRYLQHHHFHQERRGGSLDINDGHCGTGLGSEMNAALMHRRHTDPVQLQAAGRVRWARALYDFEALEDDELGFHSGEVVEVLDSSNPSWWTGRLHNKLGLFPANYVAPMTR
UniProt O76003: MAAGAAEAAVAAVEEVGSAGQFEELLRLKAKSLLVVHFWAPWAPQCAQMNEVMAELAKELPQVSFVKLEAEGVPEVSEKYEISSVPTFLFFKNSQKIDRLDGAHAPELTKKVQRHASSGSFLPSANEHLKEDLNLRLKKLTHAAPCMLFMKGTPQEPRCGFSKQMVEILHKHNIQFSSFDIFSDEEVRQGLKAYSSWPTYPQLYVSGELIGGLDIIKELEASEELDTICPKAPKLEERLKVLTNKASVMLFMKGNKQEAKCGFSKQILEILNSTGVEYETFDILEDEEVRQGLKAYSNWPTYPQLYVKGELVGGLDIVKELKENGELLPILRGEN
UniProt P49915: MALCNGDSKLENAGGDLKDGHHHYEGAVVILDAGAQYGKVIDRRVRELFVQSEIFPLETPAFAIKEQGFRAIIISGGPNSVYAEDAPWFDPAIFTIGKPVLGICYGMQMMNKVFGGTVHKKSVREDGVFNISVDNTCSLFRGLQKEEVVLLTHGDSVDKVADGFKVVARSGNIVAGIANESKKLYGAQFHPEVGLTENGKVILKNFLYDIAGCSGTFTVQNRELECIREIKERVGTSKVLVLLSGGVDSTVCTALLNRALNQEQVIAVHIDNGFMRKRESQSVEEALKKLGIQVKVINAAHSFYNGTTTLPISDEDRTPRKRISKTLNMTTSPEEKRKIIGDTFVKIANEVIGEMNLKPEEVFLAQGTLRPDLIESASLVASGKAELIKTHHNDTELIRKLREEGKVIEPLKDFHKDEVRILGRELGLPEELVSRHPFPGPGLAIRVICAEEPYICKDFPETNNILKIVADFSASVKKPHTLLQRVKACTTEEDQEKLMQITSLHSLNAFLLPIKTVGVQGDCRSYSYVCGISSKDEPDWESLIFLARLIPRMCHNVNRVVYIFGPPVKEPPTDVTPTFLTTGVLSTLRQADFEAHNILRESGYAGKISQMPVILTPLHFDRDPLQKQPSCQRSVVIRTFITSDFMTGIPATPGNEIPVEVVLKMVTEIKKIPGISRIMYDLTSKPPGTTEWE
UniProt P60983, whole entry, looked up: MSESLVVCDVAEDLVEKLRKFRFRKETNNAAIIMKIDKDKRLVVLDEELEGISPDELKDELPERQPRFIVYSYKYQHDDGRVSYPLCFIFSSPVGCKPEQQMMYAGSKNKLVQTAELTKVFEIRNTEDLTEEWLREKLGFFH
UniProt P00367: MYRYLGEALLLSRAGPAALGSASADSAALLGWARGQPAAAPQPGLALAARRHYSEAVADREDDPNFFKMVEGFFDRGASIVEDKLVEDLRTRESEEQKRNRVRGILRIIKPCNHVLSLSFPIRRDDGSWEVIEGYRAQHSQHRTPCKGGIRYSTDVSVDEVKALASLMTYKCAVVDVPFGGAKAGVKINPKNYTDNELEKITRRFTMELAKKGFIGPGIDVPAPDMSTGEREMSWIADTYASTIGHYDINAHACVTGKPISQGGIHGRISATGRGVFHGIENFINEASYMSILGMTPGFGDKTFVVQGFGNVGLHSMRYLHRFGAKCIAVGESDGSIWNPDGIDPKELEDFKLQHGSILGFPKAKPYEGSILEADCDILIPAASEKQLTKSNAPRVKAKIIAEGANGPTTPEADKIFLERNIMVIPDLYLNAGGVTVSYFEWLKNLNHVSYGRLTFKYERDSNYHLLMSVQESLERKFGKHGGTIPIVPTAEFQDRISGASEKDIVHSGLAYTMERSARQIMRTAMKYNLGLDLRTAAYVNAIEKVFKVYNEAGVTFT

Experiments:
Assay in all cases: log2 fold change, soluble protein after heating vs DMSO (PISA); higher = thermal stabilisation; K562 cells, 10 uM, 30 min; active = over 0.2 and 3.5 SD of the protein, either way, in both replicates (recomputed)
erlotinib = compound: C#Cc1cccc(Nc2ncnc3cc(OCCOC)c(OCCOC)cc23)c1 [erlotinib]
Summary of the method: (§1)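 K562 cells (2×10^6 cells/mL) were treated with 10 μM compound for 30 min, and aliquots were heated for 3 min over 48°C-58°C. Pooled aliquots were extracted in PBS with 0.5% NP-40 at 4°C, and the supernatant after 21,000xg for 90 min was measured by TMTpro 16plex LC-MS/MS with channel sums equalised. Reported thermal stability, relative to control samples and from duplicates, is a log2 fold change.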

[1] = compound: C/C(=N\NC(=O)C1=CC(=CC=C1)S(=O)(=O)N2CCOCC2)/C3=C(C=CC(=C3)Cl)O
Summary of the method: as §1

[2] = compound: C1=CC(=C(C=C1Cl)C2=NC3=NC=CN=C3C(=N2)NC4=CC=NC=C4)F
Summary of the method: as §1

[3] = compound: C1=CC(=CC=C1C2=NC3=C(N2)C=C(C=C3)C(=O)N)OC4=CC=C(C=C4)Cl
Summary of the method: as §1

[4] = compound: C1=CC2=C(C=CC(=C2)/C=C\3/C(=O)NC(=NCC4=CC=CS4)S3)N=C1
Summary of the method: as §1

[5] = compound: C1=CC2=NC=CN=C2C=C1/C=C/3\C(=O)NC(=O)S3
Summary of the method: as §1

[6] = compound: C1=CC=C(C=C1)C2=NC(=C(N2)C3=CC=NC=C3)C4=CC(=C(C=C4)Cl)O
Summary of the method: as §1

[7] = compound: C1=CC=C2C(=C1)C3=NNC4=CC=CC(=C43)C2=O
Summary of the method: as §1

[8] = compound: C1CCN(C1)C(=O)NC2=CC=CC(=C2)NC3=NC=C(C(=N3)NCCC4=CN=CN4)Br
Summary of the method: as §1

[9] = compound: C1CN(CCC1(CC2=CC=C(C=C2)Cl)N)C3=NC=NC4=C3C=CN4
Summary of the method: as §1

IRAK-1-4 Inhibitor I = compound: C1COCCN1CCN2C3=CC=CC=C3N=C2NC(=O)C4=CC(=CC=C4)[N+](=O)[O-] [IRAK-1-4 Inhibitor I]
Summary of the method: as §1

ibrutinib = compound: C=CC(=O)N1CCC[C@@H](n2nc(-c3ccc(Oc4ccccc4)cc3)c3c(N)ncnc32)C1 [ibrutinib]
Summary of the method: as §1

[10] = compound: CC(=O)c1cnc2ccc(-c3cc(Cl)c(O)c(Cl)c3)nc2c1N[C@H]1CC[C@H](CN(C)C)CC1
Summary of the method: as §1

ralimetinib = compound: CC(C)(C)Cn1c(N)nc2ccc(-c3[nH]c(C(C)(C)C)nc3-c3ccc(F)cc3)nc21 [ralimetinib]
Summary of the method: as §1

[11] = compound: CC(C)(O)CC(=O)NCCn1ccc2ncnc(Nc3ccc(Oc4cccc(C(F)(F)F)c4)c(Cl)c3)c21
Summary of the method: as §1

[12] = compound: CC(C)C1=C2N=C(C=C(N2N=C1)NCC3=CC=CC=C3)NCCCCCCN
Summary of the method: as §1

[13] = compound: CC(C)C[C@@H](C=O)NC(=O)[C@H](CC(C)C)NC(=O)[C@H](CC(C)C)NC(=O)OCc1ccccc1
Summary of the method: as §1

pinometostat = compound: CC(C)N(C[C@H]1O[C@@H](n2cnc3c(N)ncnc32)[C@H](O)[C@@H]1O)[C@H]1C[C@@H](CCc2nc3cc(C(C)(C)C)ccc3[nH]2)C1 [pinometostat]
Summary of the method: as §1

[14] = compound: CC1=C(C2=C(C=C1)C(=O)C3=CC=CC=C3N2CCCN)C
Summary of the method: as §1

[15] = compound: CC1=C(C(CC(=O)N1)C2=CC=C(C=C2)C(F)(F)F)C(=O)NC3=C(C=C4C(=C3)C=NN4)F
Summary of the method: as §1

Measured: log2 fold change

GPAT4 (UniProt Q86UL3)
inactive: erlotinib -0.017 | [1] -0.002 | [2] 0.06 | [3] -0.021 | [4] -0.016 | [5] -0.016 | [6] -0.01 | [7] 0.032 | [8] -0.087 | [9] 0.07 | IRAK-1-4 Inhibitor I -0.144 | ibrutinib -0.081 | [10] 0.044 | ralimetinib -0.058 | [11] -0.09 | [12] 0.145 | [13] 0.007 | pinometostat -0.029 | [14] 0.047

GRIPAP1 (UniProt Q4V328)
inactive: erlotinib -0.013 | [1] 0.037 | [2] -0.028 | [3] 0.014 | [4] -0.045 | [5] 0.087 | [6] -0.02 | [7] -0.046 | [8] -0.01 | [9] -0.11 | IRAK-1-4 Inhibitor I -0.026 | ibrutinib -0.043 | [10] 0.11 | ralimetinib 0.104 | [11] 0.026 | [12] -0.021 | [13] -0.032 | pinometostat -0.011 | [15] -0.071 | [14] -0.152

GNA13 (UniProt Q14344)
inactive: erlotinib -0.01 | [1] 0.046 | [2] 0.009 | [3] 0.034 | [4] 0.036 | [5] 0.001 | [6] -0.024 | [7] -0.031 | [8] -0.031 | [9] 0.083 | IRAK-1-4 Inhibitor I 0.057 | ibrutinib -0.045 | [10] -0.105 | ralimetinib -0.02 | [11] 0.01 | [12] 0.162 | [13] 0.012 | pinometostat -0.028 | [15] -0.023 | [14] 0.086

GLB1 (UniProt P16278)
inactive: erlotinib -0.082 | [1] 0.038 | [2] 0 | [3] -0.006 | [4] 0.018 | [5] -0.028 | [6] 0.013 | [7] -0.011 | [8] 0.017 | [9] -0.009 | IRAK-1-4 Inhibitor I 0.041 | ibrutinib 0.033 | [10] -0.005 | ralimetinib -0.009 | [11] 0.048 | [13] 0.062 | pinometostat 0.021 | [14] -0.015
active: [12] -0.282

GPD1L (UniProt Q8N335)
inactive: erlotinib 0.047 | [1] 0.11 | [2] 0.032 | [3] 0.099 | [4] 0.078 | [5] -0.137 | [6] 0.009 | [7] 0 | [8] -0.001 | [9] 0.041 | IRAK-1-4 Inhibitor I 0.011 | ibrutinib 0.065 | [10] -0.122 | ralimetinib -0.028 | [11] 0.002 | [12] 0.034 | [13] 0.025 | pinometostat -0.038 | [15] 0.002 | [14] 0.065

Quoted at random: two entries already listed
GNA13 (UniProt Q14344)
inactive: erlotinib -0.01 | [1] 0.046 | [2] 0.009 | [3] 0.034 | [4] 0.036 | [5] 0.001 | [6] -0.024 | [7] -0.031 | [8] -0.031 | [9] 0.083 | IRAK-1-4 Inhibitor I 0.057 | ibrutinib -0.045 | [10] -0.105 | ralimetinib -0.02 | [11] 0.01 | [12] 0.162 | [13] 0.012 | pinometostat -0.028 | [15] -0.023 | [14] 0.086

GLB1 (UniProt P16278)
inactive: erlotinib -0.082 | [1] 0.038 | [2] 0 | [3] -0.006 | [4] 0.018 | [5] -0.028 | [6] 0.013 | [7] -0.011 | [8] 0.017 | [9] -0.009 | IRAK-1-4 Inhibitor I 0.041 | ibrutinib 0.033 | [10] -0.005 | ralimetinib -0.009 | [11] 0.048 | [13] 0.062 | pinometostat 0.021 | [14] -0.015
active: [12] -0.282

The listing continues:

GLRX2 isoform 2 (UniProt Q9NS18)
inactive: erlotinib -0.015 | [1] -0.005 | [2] 0.148 | [3] -0.002 | [4] -0.033 | [5] 0.123 | [6] -0.108 | [7] -0.095 | [8] -0.037 | [9] -0.001 | IRAK-1-4 Inhibitor I 0.007 | ibrutinib 0.021 | [10] 0.046 | ralimetinib -0.019 | [11] -0.32 | [12] 0.124 | [13] -0.016 | pinometostat -0.055 | [15] -0.126 | [14] -0.017

GPATCH8 (UniProt Q9UKJ3)
inactive: erlotinib -0.001 | [1] -0.02 | [2] 0.057 | [3] -0.049 | [4] 0.035 | [5] 0.052 | [6] -0.038 | [7] -0.01 | [8] -0.005 | [9] -0.026 | IRAK-1-4 Inhibitor I -0.013 | ibrutinib -0.019 | [10] -0.047 | ralimetinib 0.071 | [11] 0.03 | [12] 0.089 | [13] -0.032 | pinometostat 0.127 | [15] -0.005 | [14] -0.094

GPAA1 (UniProt O43292)
inactive: erlotinib -0.075 | [1] 0.026 | [2] 0.026 | [3] 0.01 | [4] 0.011 | [5] 0.013 | [6] -0.001 | [7] -0.015 | [8] -0.009 | [9] 0.049 | IRAK-1-4 Inhibitor I 0.016 | ibrutinib -0.042 | [10] 0.03 | ralimetinib 0.018 | [11] -0.015 | [12] -0.029 | [13] -0.043 | pinometostat 0.056 | [15] 0.043 | [14] 0.002

GPRIN1 (UniProt Q7Z2K8)
inactive: erlotinib 0.048 | [1] -0.054 | [2] 0.014 | [3] 0.01 | [4] 0.022 | [5] 0.032 | [6] -0.006 | [7] -0.078 | [8] -0.041 | [9] 0.044 | IRAK-1-4 Inhibitor I 0.03 | ibrutinib -0.007 | [10] -0.017 | ralimetinib -0.015 | [11] -0.014 | [12] 0.136 | [13] -0.017 | pinometostat -0.007 | [15] 0.013 | [14] 0.02

GRAP2 (UniProt O75791)
inactive: erlotinib 0.012 | [1] 0.017 | [2] -0.084 | [3] -0.062 | [4] 0.232 | [5] 0.281 | [6] 0.037 | [7] 0.018 | [8] -0.078 | [9] 0.033 | IRAK-1-4 Inhibitor I -0.027 | ibrutinib 0.078 | [10] -0.191 | ralimetinib 0.018 | [11] 0.011 | [12] -0.138 | [13] 0.13 | pinometostat 0.119 | [15] 0.064 | [14] -0.041

GLRX3 (UniProt O76003)
inactive: erlotinib -0.031 | [1] 0.024 | [2] 0.052 | [3] -0.037 | [4] 0.011 | [5] 0.006 | [6] 0.031 | [7] -0.001 | [8] 0.003 | [9] -0.015 | IRAK-1-4 Inhibitor I -0.03 | ibrutinib -0.015 | [10] 0.02 | ralimetinib 0.002 | [11] -0.027 | [12] -0.024 | [13] -0.033 | pinometostat -0.033 | [14] -0.025

GMPS (UniProt P49915)
inactive: erlotinib -0.002 | [1] 0.062 | [2] 0.072 | [3] 0.019 | [4] 0.04 | [5] 0.023 | [6] 0.073 | [7] 0.031 | [8] 0.003 | [9] 0.007 | IRAK-1-4 Inhibitor I 0.036 | ibrutinib -0.018 | [10] -0.025 | ralimetinib 0.046 | [11] -0.05 | [12] -0.067 | [13] -0.064 | pinometostat -0.013 | [15] -0.011 | [14] 0.071

GID8 (UniProt Q9NWU2)
inactive: erlotinib -0.037 | [1] -0.013 | [2] 0.002 | [3] 0.024 | [4] 0.036 | [5] 0.061 | [6] 0.029 | [7] 0.027 | [8] 0.005 | [9] -0.086 | IRAK-1-4 Inhibitor I -0.001 | ibrutinib -0.021 | [10] 0.034 | ralimetinib 0.04 | [11] -0.024 | [12] 0.046 | [13] -0.022 | pinometostat -0.037 | [15] 0.029 | [14] 0.033

GNPTG (UniProt Q9UJJ9)
inactive: erlotinib -0.016 | [1] -0.003 | [2] 0.012 | [3] 0.007 | [4] -0.126 | [5] -0.043 | [6] 0.008 | [7] 0.038 | [8] -0.02 | [9] 0.018 | IRAK-1-4 Inhibitor I -0.012 | ibrutinib 0.026 | [10] -0.034 | ralimetinib -0.048 | [11] 0.07 | [12] -0.047 | [13] 0.006 | pinometostat 0.037 | [15] 0.005 | [14] -0.015

GMFB (UniProt P60983)
inactive: erlotinib 0.016 | [1] 0.044 | [2] 0.063 | [3] -0.003 | [4] 0.004 | [5] -0.015 | [6] 0.041 | [7] -0.004 | [8] -0.023 | [9] 0.014 | IRAK-1-4 Inhibitor I 0.052 | ibrutinib 0.015 | [10] -0.024 | ralimetinib -0.01 | [11] -0.025 | [12] -0.006 | [13] -0.05 | pinometostat -0.081 | [15] 0.002 | [14] 0.047

GLUD1 (UniProt P00367)
inactive: erlotinib 0.068 | [1] -0.009 | [2] 0.051 | [3] 0.026 | [4] 0.039 | [5] -0.018 | [6] -0.033 | [7] 0 | [8] 0.05 | [9] -0.027 | IRAK-1-4 Inhibitor I 0.02 | ibrutinib 0.04 | [10] 0.068 | ralimetinib 0.023 | [11] -0.038 | [12] -0.049 | [13] 0.012 | pinometostat 0.023 | [14] 0.125
